In publication doi:10.1101/2025.02.17.638751:
Results are given in words; binding and its absence hold for the method and conditions named. Binding seen in cells or lysates may run through a third protein. Here binding means that the protein was enriched with, or labelled near, the bait; the list need not be complete. For some of these results: A no says only that the protein was not detected with the bait.

Chains of the proteins cited; added tags and fusions are not shown.
UniProt P08047: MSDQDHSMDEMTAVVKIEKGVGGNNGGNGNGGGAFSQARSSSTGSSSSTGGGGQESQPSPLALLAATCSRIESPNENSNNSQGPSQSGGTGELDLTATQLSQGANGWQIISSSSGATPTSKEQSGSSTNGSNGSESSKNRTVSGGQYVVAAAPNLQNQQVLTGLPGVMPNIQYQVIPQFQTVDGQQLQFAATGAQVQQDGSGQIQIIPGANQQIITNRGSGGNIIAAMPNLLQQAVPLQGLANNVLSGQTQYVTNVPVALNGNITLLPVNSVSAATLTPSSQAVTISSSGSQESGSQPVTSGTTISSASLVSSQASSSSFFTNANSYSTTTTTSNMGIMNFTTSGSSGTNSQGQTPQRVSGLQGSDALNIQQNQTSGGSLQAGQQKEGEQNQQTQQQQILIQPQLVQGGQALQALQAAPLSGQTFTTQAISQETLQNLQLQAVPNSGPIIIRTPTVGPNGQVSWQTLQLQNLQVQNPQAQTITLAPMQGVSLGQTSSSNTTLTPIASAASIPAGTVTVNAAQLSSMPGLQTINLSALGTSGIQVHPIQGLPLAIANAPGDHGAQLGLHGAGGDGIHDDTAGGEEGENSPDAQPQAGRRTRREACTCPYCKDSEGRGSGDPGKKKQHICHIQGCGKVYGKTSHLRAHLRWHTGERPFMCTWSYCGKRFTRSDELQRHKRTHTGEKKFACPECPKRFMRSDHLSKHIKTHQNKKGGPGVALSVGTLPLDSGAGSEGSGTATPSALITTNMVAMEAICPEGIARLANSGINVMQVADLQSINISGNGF
UniProt Q92830: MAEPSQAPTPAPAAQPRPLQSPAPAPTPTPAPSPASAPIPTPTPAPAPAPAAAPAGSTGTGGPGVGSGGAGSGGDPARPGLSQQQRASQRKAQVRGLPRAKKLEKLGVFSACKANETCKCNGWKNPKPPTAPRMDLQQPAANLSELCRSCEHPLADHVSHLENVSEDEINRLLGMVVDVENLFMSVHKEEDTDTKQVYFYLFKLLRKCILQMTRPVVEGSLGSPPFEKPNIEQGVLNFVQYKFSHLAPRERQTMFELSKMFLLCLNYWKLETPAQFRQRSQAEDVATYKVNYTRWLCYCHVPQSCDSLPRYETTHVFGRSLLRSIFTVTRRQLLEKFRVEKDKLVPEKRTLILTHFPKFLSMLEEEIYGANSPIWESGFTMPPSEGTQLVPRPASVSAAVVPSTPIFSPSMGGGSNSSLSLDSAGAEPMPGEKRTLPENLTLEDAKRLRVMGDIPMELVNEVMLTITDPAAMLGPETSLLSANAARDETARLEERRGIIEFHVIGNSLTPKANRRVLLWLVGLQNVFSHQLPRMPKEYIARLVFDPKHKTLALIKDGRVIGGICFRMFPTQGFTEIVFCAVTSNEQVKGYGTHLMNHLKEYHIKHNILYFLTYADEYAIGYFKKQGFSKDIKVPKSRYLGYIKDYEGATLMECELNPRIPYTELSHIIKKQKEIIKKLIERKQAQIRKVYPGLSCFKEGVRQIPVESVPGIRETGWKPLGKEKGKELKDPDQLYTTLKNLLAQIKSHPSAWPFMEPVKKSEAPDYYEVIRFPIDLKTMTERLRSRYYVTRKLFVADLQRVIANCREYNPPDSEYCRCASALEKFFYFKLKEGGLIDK
UniProt Q9UKT9: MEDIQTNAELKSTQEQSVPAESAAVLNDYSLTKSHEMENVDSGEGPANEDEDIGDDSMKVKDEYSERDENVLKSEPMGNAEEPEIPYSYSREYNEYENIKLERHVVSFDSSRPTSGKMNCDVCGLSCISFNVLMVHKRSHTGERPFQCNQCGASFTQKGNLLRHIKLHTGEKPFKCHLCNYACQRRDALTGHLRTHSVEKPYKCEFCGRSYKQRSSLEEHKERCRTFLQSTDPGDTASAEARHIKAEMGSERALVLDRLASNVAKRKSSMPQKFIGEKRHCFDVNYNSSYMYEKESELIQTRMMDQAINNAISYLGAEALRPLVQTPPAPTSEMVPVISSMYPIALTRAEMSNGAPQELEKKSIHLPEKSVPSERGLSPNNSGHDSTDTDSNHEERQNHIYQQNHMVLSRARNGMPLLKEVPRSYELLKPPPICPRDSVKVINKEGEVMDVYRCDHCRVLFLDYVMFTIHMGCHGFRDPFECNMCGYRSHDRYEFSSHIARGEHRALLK
UniProt Q13422: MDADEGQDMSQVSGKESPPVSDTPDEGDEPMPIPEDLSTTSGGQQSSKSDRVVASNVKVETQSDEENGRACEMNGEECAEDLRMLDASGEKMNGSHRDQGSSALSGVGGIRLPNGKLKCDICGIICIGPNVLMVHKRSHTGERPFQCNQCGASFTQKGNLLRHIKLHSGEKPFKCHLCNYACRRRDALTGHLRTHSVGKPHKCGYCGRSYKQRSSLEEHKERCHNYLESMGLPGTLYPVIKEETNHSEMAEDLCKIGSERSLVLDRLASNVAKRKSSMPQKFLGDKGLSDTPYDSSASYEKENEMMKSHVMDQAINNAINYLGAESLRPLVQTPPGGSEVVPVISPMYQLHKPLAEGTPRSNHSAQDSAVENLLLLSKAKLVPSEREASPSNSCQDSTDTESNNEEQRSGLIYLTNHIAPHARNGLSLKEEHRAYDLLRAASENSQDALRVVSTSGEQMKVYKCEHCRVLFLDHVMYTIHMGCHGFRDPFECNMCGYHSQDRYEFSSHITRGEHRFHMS
UniProt Q9UKS7: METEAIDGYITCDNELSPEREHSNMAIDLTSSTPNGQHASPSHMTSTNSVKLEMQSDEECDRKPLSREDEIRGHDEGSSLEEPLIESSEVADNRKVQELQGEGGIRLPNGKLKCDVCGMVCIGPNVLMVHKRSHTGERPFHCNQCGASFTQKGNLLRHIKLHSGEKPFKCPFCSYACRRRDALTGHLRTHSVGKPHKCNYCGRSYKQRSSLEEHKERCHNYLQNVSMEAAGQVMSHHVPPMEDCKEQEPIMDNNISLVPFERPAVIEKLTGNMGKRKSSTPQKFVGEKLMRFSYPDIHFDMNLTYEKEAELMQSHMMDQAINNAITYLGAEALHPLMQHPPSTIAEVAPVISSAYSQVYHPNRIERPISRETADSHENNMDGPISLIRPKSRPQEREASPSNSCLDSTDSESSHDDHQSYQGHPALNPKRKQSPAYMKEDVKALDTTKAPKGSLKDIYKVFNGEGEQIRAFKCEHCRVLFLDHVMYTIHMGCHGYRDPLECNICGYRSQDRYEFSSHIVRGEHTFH

Assays:
[1] = target: Sp1 (human (endogenous in SUDHL4)) (UniProt P08047); experiment: condition: only cells treated with etoposide plus the Chk1 inhibitor Rabusertib
[2] = target: Sp1 (human (endogenous in SUDHL4)) (UniProt P08047); experiment: affinity purification with mass spectrometry

Molecule	binding [1]	binding [2]
histone acetyltransferase KAT2A (from UniProt Q92830 1-837)	no binding	binds
IKZF3 (from UniProt Q9UKT9 1-509)		binds
SAP130 (protein, UniProt Q9H0E3 1-1048) MGPPRHPQAGEIEAGGAGGGRRLQVEMSSQQFPRLGAPSTGLSQAPSQIANSGSAGLINPAATVNDESGRDSEVSAREHMSSSSSLQSREEKQEPVVVRPYPQVQMLSTHHAVASATPVAVTAPPAHLTPAVPLSFSEGLMKPPPKPTMPSRPIAPAPPSTLSLPPKVPGQVTVTMESSIPQASAIPVATISGQQGHPSNLHHIMTTNVQMSIIRSNAPGPPLHIGASHLPRGAAAAAVMSSSKVTTVLRPTSQLPNAATAQPAVQHIIHQPIQSRPPVTTSNAIPPAVVATVSATRAQSPVITTTAAHATDSALSRPTLSIQHPPSAAISIQRPAQSRDVTTRITLPSHPALGTPKQQLHTMAQKTIFSTGTPVAAATVAPILATNTIPSATTAGSVSHTQAPTSTIVTMTVPSHSSHATAVTTSNIPVAKVVPQQITHTSPRIQPDYPAERSSLIPISGHRASPNPVAMETRSDNRPSVPVQFQYFLPTYPPSAYPLAAHTYTPITSSVSTIRQYPVSAQAPNSAITAQTGVGVASTVHLNPMQLMTVDASHARHIQGIQPAPISTQGIQPAPIGTPGIQPAPLGTQGIHSATPINTQGLQPAPMGTQQPQPEGKTSAVVLADGATIVANPISNPFSAAPAATTVVQTHSQSASTNAPAQGSSPRPSILRKKPATDGAKPKSEIHVSMATPVTVSMETVSNQNNDQPTIAVPPTAQQPPPTIPTMIAAASPPSQPAVALSTIPGAVPITPPITTIAAAPPPSVTVGGSLSSVLGPPVPEIKVKEEVEPMDIMRPVSAVPPLATNTVSPSLALLANNLSMPTSDLPPGASPRKKPRKQQHVISTEEGDMMETNSTDDEKSTAKSLLVKAEKRKSPPKEYIDEEGVRYVPVRPRPPITLLRHYRNPWKAAYHHFQRYSDVRVKEEKKAMLQEIANQKGVSCRAQGWKVHLCAAQLLQLTNLEHDVYERLTNLQEGIIPKKKAATDDDLHRINELIQGNMQRCKLVMDQISEARDSMLKVLDHKDRVLKLLNKNGTVKKVSKLKRKEKV		binds

Further lines, results first:

binding [1]	binding [2]	Molecule
	binds	IKZF1 (from UniProt Q13422 1-519)
	binds	IKZF2 (from UniProt Q9UKS7 1-526)
	binds	ZZZ3 (protein, UniProt Q8IYH5 1-903) MAASRSTRVTRSTVGLNGLDESFCGRTLRNRSIAHPEEISSNSQVRSRSPKKRPEPVPIQKGNNNGRTTDLKQQSTRESWVSPRKRGLSSSEKDNIERQAIENCERRQTEPVSPVLKRIKRCLRSEAPNSSEEDSPIKSDKESVEQRSTVVDNDADFQGTKRACRCLILDDCEKREIKKVNVSEEGPLNSAVVEEITGYLAVNGVDDSDSAVINCDDCQPDGNTKQNSIGSYVLQEKSVAENGDTDTQTSMFLDSRKEDSYIDHKVPCTDSQVQVKLEDHKIVTACLPVEHVNQLTTEPATGPFSETQSSLRDSEEEVDVVGDSSASKEQCKENTNNELDTSLESMPASGEPEPSPVLDCVSAQMMSLSEPQEHRYTLRTSPRRAAPTRGSPTKNSSPYRENGQFEENNLSPNETNATVSDNVSQSPTNPGEISQNEKGICCDSQNNGSEGVSKPPSEARLNIGHLPSAKESASQHITEEEDDDPDVYYFESDHVALKHNKDYQRLLQTIAVLEAQRSQAVQDLESLGRHQREALKNPIGFVEKLQKKADIGLPYPQRVVQLPEIVWDQYTHSLGNFEREFKNRKRHTRRVKLVFDKVGLPARPKSPLDPKKDGESLSYSMLPLSDGPEGSSSRPQMIRGRLCDDTKPETFNQLWTVEEQKKLEQLLIKYPPEEVESRRWQKIADELGNRTAKQVASRVQKYFIKLTKAGIPVPGRTPNLYIYSKKSSTSRRQHPLNKHLFKPSTFMTSHEPPVYMDEDDDRSCFHSHMNTAVEDASDDESIPIMYRNLPEYKELLQFKKLKKQKLQQMQAESGFVQHVGFKCDNCGIEPIQGVRWHCQDCPPEMSLDFCDSCSDCLHETDIHKEDHQLEPIYRSETFLDRDYCVSQGTSYNYLDPNYFPANR
